Results on one compound are retold here after patent US10245278B2 (priority 2013, dated 2019).

A short description of the data set: Blind bitterness evaluation by a panel of three trained experts. Also noted: species or system human; key to bitterness score from each expert: 1=not satisfactory; 2=fair; 3=satisfactory (no bitterness).

Consider `OC[C@@H](O)[C@@H](O[C@H]1O[C@H](CO)[C@@H](O)[C@H](O)[C@H]1O)[C@H](O)[C@@H](O)CO` [maltitol], for which, for the setting “individual mark 1 to 3, without dilution in water”, the “bitterness score from each expert” value is recorded as 2. In addition, the “total bitterness score (panel of experts)” value (three experts, total score from 3 to 9, without addition of water) is 7.
